{
  "source": "paper doi:10.1101/2024.10.13.618061",
  "about": "(bioRxiv, 2024)",
  "binders": {"B1": {"name": "wheat Sr35 (Triticum monococcum; TmSr35) [change]/[change], untagged (receptor)", "chain": "MEIAMGAIGSELPKEGELLIGEITLEKKVRKGIESLITELKLMQAVLSKVSKVPADQLDEGVKIWAGNVKELSYQMEDIVDAFMVRVGDGGESTNPKNRVKKILKKVKKLFKNGKDLHRISAALEEVVLQAKQLAELRQRYEQEMRDTSANTSVDPRMMALYTDVTELVGIEETRDKLINMLTEGDDWSKHPLKTISIVGFGGLGKTTLAKAAYDKIKVQFDCGAFVSVSRNPEMKKVLKDILYGLDKVKYENIHNAARDEKYLIDDIIEFLNDKRYLIVIDDIWNEKAWELIKCAFSKKSPGSRLITTTRNVSVSEACCSSEDDIYRMEPLSNDVSRTLFCKRIFSQEEGCPQELLKVSEEILKKCGGVPLAIITIASLLANKGHIKAKDEWYALLSSIGHGLTKNRSLEQMKKILLFSYYDLPSYLKPCLLYLSIFPEDREIRRARLIWRWISEGFVYSEKQDISLYELGDSYFNELVNRSMIQPIGIDDEGKVKACRVHDMVLDLICSLSSEENFVTILDDPRRKMPNSESKVRRLSIQNSKIDVDTTRMEHMRSVTVFSDNVVGKVLDISRFKVLRVLDLEGCHVSDVGYVGNLLHLRYLGLKGTHVKDLPMEIGKLQFLLTLDLRGTKIEVLPWSVVQLRRLMCLYVDYGMKLPSGIGNLTFLEVLDDLGLSDVDLDFVKELGRLTKLRVLRLDFHGFDQSMGKALEESISNMYKLDSLDVFVNRGLINCLSEHWVPPPRLCRLAFPSKRSWFKTLPSWINPSSLPLLSYLDITLFEVRSEDIQLLGTLPALVYLEIWNYSVFEEAHEVEAPVLSSGAALFPCATECRFIGIGAVPSMFPQGAAPRLKRLWFTFPAKWISSENIGLGMRHLPSLQRVVVDVISEGASREEADEAEAALRAAAEDHPNRPILDIW"}},
  "key": {"[1]": {"molecular_target": "wheat Sr35 (Triticum monococcum; TmSr35) [change]/[change], untagged (Triticum monococcum) (UniProt S5ABD6)", "test": "SEC"}, "[2]": {"molecular_target": "wheat Sr35 (Triticum monococcum; TmSr35) [change]/[change], untagged (Triticum monococcum) (UniProt S5ABD6)", "test": "cryo-EM structure"}},
  "note": "No constants are given. Whether binding was seen depends on the method and setting. Some binding calls cover weakened binding; strength is not graded here. Where a sequence is shown, tags or fusion partners need not be part of it.",
  "data": [
    {"binder": "B1", "values": [
      {"measurement": "binding", "setting": "[1]", "value": "binds"},
      {"measurement": "binding", "setting": "[2]", "value": "binds"}
    ]}
  ]
}
